A short description of the test: qHTS Assay to Find Inhibitors of Chronic Active B-Cell Receptor Signaling. As to conditions: ABC-DLBCL IkBa-CBG/CBR reporter, luminescence ratio (green luciferase fused to IkBa over red control in TMD8 lymphoma cells), 4 h. The method in brief:
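TMD8 ABC-DLBCL cells carrying doxycycline-inducible green luciferase fused to IkappaBalpha plus unfused red luciferase were exposed to compounds (up to 46 uM) for 4 hrs at 37C. Activity came from the overlap-corrected green/red luminescence ratio.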
In general terms: In qHTS, concentration-response curves come from the screen itself.

Setting [1] is: measured here: CBR red luminescence, cell number.
Where [2] appears, read: measured here: IkBa-CBG green luminescence.

From PubChem BioAssay AID493014 (National Center for Advancing Translational Sciences (NCATS), 2011) come the findings set out here.

“And” between values parts separate entries of the source, which are not always exact repeats. Equal values may be shown once. This is one part of the list. The main result of the screen is listed elsewhere. These columns were measured beside it and carry no call. Compounds called inactive in the main read-out are mostly missing here. Words in brackets tell the shape of the fitted curve; partial curves, single points and poor fits give uncertain potencies.

One may read the AC50 as the concentration giving half of the maximal activity seen.

Consider `CCOC(=O)C(=NC(C)CC)NNc1cccc(C(F)(F)F)c1` (stereo unspecified), for which, under setting [1], the AC50 was 6.51 µM [rising, single point].

`CCOc1ccc(NC(=O)c2nc(SCC)ncc2Cl)cc1`: under setting [1], the AC50 is 35.5 µM [rising, single point].

For the compound `C=CCSc1nnc(NC(=O)c2c(CC)noc2C)s1`, the AC50 under setting [1] was 20.6 µM [falling, single point].

For `Cc1nc2cc(NCc3nc4ccccc4n3Cc3ccccc3)ccc2n1C`, under setting [1], the AC50 was 11.2 µM [falling, partial curve, poor fit].

With `O=[N+]([O-])c1ccc(-c2nc(-c3cccs3)c(-c3cccs3)[nH]2)cc1`, the AC50 under setting [1] was 8.91 µM [falling, partial curve].

For the compound `COc1ccc(C/C(N)=N/OC(=O)c2cccc([N+](=O)[O-])c2)cc1`, the AC50 under setting [1] is 9.2 µM [rising, partial curve, poor fit].

`CN(C(=O)Nc1ccccc1)C1CCCCC1`: the AC50 under setting [1] is 3.98 µM [rising, full curve, poor fit].

As to `Cc1c(C(=O)C(=O)NCC2CCCO2)c2ccccc2n1C` (stereo unspecified), the AC50 under setting [1] was 14.1 µM [rising, single point].

As to `O=[N+]([O-])c1cccc(S(=O)(=O)N/N=C/c2ccc(O)cc2)c1`, the AC50 under setting [1] was 22.4 µM [falling, partial curve, poor fit].

Regarding `O=C(C#Cc1ccccc1)Nc1ccccc1F`, under setting [1], the AC50 was 14.1 µM [falling, partial curve].

Regarding `O=S(=O)(c1ccc2oc3ccccc3c2c1)N1CCOCC1`, the AC50 under setting [1] was 4.11 µM [rising, partial curve, poor fit].

Consider `O=c1c2ccccc2c2ccccc2c(=O)n1Cc1cccnc1`, for which the AC50 under setting [1] was 4.11 µM [falling, partial curve, poor fit].

On to `Cc1nnc(SCCC(C)C)[nH]c1=O`, for which the AC50 under setting [1] was 35.5 µM [falling, single point].

As to `CCSc1nnc(NC(=O)C2CCCN(S(=O)(=O)c3cnc[nH]3)C2)s1` (stereo unspecified), the AC50 under setting [1] was 13 µM [falling, partial curve].

`COc1ccc(-n2nc(C(=O)NCC(=O)N3CCN(c4ccccn4)CC3)c3ccccc3c2=O)cc1OC`: under setting [1], the AC50 was 3.55 µM [rising, partial curve].

Take `CCOC(=O)c1nc(Nc2ccc(Nc3ccccc3)cc2)c2ccccc2n1`: the AC50 under setting [1] is 11.2 µM [falling, single point].

Regarding `COc1ccc(-c2ccc(SCC(=O)NC3CCCCC3)nn2)cc1OC`, under setting [1], the AC50 is 0.794 µM [falling, full curve, poor fit].

Turning to `N#CCCN(Cc1cccnc1)C(=O)Nc1ccccc1`, the AC50 under setting [1] was 6.51 µM [falling, single point].

On to `O=C(NCc1cccs1)C1CC(c2ccc(Cl)c(Cl)c2)=NO1` (stereo unspecified), for which the AC50 under setting [1] is 7.08 µM [rising, partial curve, poor fit].

In the case of `Cc1ccccc1NC(=O)Cc1nc(COC(=O)c2cc([N+](=O)[O-])ccc2N)cs1`, the AC50 under setting [1] was 15.8 µM [falling, partial curve, poor fit].

In the case of `O=C(Nc1ccccc1-c1nnn(CC(=O)N2CCCc3ccccc32)n1)c1ccco1`, the half-maximal activity concentration (AC50) under setting [1] was 22.4 µM [falling, single point].

`COc1ccc(C(O)c2nccn2Cc2ccccc2)cc1OC` (stereo unspecified): the AC50 under setting [1] is 12.6 µM [falling, partial curve].

For the compound `CC(C)C1CC(CCNCc2ccc(N(C)C)cc2)(c2ccccc2)CCO1` (stereo unspecified), under setting [1], the AC50 is 15.8 µM [falling, single point].

On to `O=C(c1ccco1)n1nc(-c2ccco2)nc1SCc1ccccc1`, for which the AC50 under setting [1] was 5.17 µM [falling, partial curve].

For the compound `COc1cc(-n2nc(C)c3c2OC(N)=C(C#N)C3c2ccccc2)c(Cl)c(Br)c1O` (stereo unspecified), the AC50 under setting [1] was 18.4 µM [falling, single point].

Turning to `Cc1ccc2cc(C)c3nnc(SCC(=O)Nc4nc5c(s4)CCCC5)n3c2c1C`, the AC50 under setting [1] was 0.891 µM [falling, full curve, poor fit].

For `COc1ccc(C(=O)N/N=C\c2ccoc2)cc1`, the AC50 under setting [1] is 2 µM [falling, full curve, poor fit].

`CCS(=O)(=O)Nc1ccc(C2=NN(C(=O)c3ccccc3)C(c3cccs3)C2)cc1` (stereo unspecified): the AC50 under setting [1] was 35.5 µM [falling, single point].

Consider `COc1ccc(-c2ccc(OC)c([C@H]3[C@@H]4C=CCC[C@@]4(C)C(=O)N3Cc3ccccc3)c2)cc1OC`, for which the AC50 under setting [1] is 20 µM [falling, single point].

On to `O=C(OCC(=O)N1CCCc2ccccc21)c1cccc(C(F)(F)F)c1`, for which the AC50 under setting [1] was 23.1 µM [rising, single point].

`CCNC(=S)Nc1cc(OCC)c(NC(=O)c2cccs2)cc1OCC`: the AC50 under setting [1] is 6.51 µM [rising, single point].

For `Cc1ccc(-c2cc(C(=O)Nc3cccnc3)[nH]n2)c(O)c1C`, the AC50 under setting [1] was 10 µM [falling, single point].

In the case of `Cc1ccc(S(=O)(=O)NNC(=O)Nc2cccc(F)c2)c(C)c1`, the AC50 under setting [1] is 31.6 µM [rising, single point].

For `CN1CCc2cccc3c2[C@H]1Cc1ccc(O)c(O)c1-3`, the AC50 under setting [1] was 29.1 µM [falling, single point] and 4.61 µM [rising, full curve, poor fit]; the AC50 under setting [2] is 3.66 µM [falling, partial curve].

Take `CN(c1ccccc1)S(=O)(=O)c1cccc(C(=O)NCCc2ccc(O)c(O)c2)c1`: the AC50 under setting [1] is 7.08 µM [falling, full curve, poor fit].

For the compound `Cc1c(C)n(CC(O)CN2CCCCCC2)c2ccccc12` (stereo unspecified), the AC50 under setting [1] was 11.2 µM [falling, partial curve, poor fit].

Consider `Cc1cc(C)nc(NN=C2CCCC2)n1`, for which the AC50 under setting [1] is 0.206 µM [falling, partial curve, poor fit].

Turning to `Cc1ccc(COC(=O)c2ccc3ccccc3n2)cc1`, the AC50 under setting [1] is 17.8 µM [rising, partial curve].

`CCOc1ccc(NC(=O)c2ccccc2CO)cc1`: under setting [1], the AC50 was 0.00461 µM [falling, full curve, poor fit].

As to `Nc1cc(-c2cccc([N+](=O)[O-])c2)[nH]n1`, the AC50 under setting [1] is 23.1 µM [rising, partial curve, poor fit].

On to `COc1cccc(CNc2nc3nc(C)c(Cl)c(=O)n3[nH]2)c1`, for which the AC50 under setting [1] is 11.2 µM [falling, partial curve, poor fit].

As for `Cn1c(N)c(C(=O)c2ccc(Cl)cc2)c(=O)n(C)c1=O`, the AC50 under setting [1] was 6.51 µM [falling, single point].

With `Cc1ccc(S(=O)(=O)N2CCCC2C(=O)OCC(=O)Nc2ccc3c(c2)OCO3)cc1` (stereo unspecified), under setting [1], the AC50 was 3.16 µM [falling, full curve].

Take `CC(=O)N1CCN(c2ccc(NC(=O)c3ccc(C(C)(C)C)cc3)cc2)CC1`: the concentration at half-maximal activity (AC50) under setting [1] is 29.1 µM [falling, single point].

For the compound `O=S(=O)(NCc1ccco1)c1ccc2ccccc2c1`, the AC50 under setting [1] was 0.282 µM [rising, full curve, poor fit].

Consider `CC1CCCCN1CC(=O)Nc1cc(S(=O)(=O)N2CCOCC2)ccc1N1CCCC1` (stereo unspecified), for which the AC50 under setting [1] was 31.6 µM [rising, single point].

Consider `COc1ccc(C(=O)NCc2nnc(SCC(=O)c3ccccc3)n2C)cc1`, for which the AC50 under setting [1] is 10 µM [rising, partial curve, poor fit].

`CC(C)(C)NC(=O)c1oc2ccccc2c1COc1ccccc1`: the AC50 under setting [1] was 25.9 µM [rising, single point].

For `CC(C)CC(=O)Nc1nnc(CCc2ccccc2)s1`, under setting [1], the concentration at half-maximal activity (AC50) was 14.1 µM [rising, single point].

Consider `Cn1cc(/C=N/NC(=O)COc2ccccc2[N+](=O)[O-])c2ccccc21`, for which the AC50 under setting [1] is 29.1 µM [falling, single point].

Take `CC(C)C(=O)NC(=S)/C=C1/N(C)c2ccccc2C1(C)C`: the AC50 under setting [2] was 20 µM [falling, partial curve, poor fit].

Consider `N#CC1=C(N)N(c2ccc(Br)cc2)C2=C(C(=O)CCC2)C1c1cccnc1` (stereo unspecified), for which the AC50 under setting [1] is 0.92 µM [falling, full curve].

On to `Cc1ccc(NC(=O)c2cc(N3C(=O)C=CC3=O)ccc2N2CCOCC2)cc1Cl`, for which, under setting [1], the AC50 is 14.6 µM [falling, partial curve].

Regarding `COc1cccc(OC)c1C(=O)Nc1ccccc1N1CCCCC1`, the AC50 under setting [1] is 0.794 µM [rising, full curve].

As to `CNC(=O)CC1C(=O)N(c2ccc(Cl)cc2)C(=S)N1CCc1ccc(OC)c(OC)c1` (stereo unspecified), the AC50 under setting [1] was 35.5 µM [falling, single point] and the AC50 under setting [2] was 10 µM [falling, partial curve, poor fit].

For `CCNC(=S)N(Cc1ccco1)Cc1cc2cc(OCC)ccc2[nH]c1=O`, under setting [1], the AC50 was 11.2 µM [falling, partial curve, poor fit].

Take `O=C1CN(S(=O)(=O)c2cccc(Br)c2)CCN1`: under setting [1], the AC50 was 29.1 µM [rising, single point].

`CCOC(=O)c1cc(=O)n2[nH]c(-c3ccc(C)cc3)cc2n1`: the AC50 under setting [1] is 2.06 µM [falling, full curve, poor fit].

Turning to `O=C(Cc1ccccc1)NCC(=O)Nc1cccc(Br)c1`, the AC50 under setting [1] was 15.8 µM [falling, partial curve, poor fit].

Take `CCOC(=O)c1nc(Nc2cc(C)cc(C)c2)c2ccccc2n1`: the AC50 under setting [1] is 0.282 µM [rising, full curve, poor fit].

On to `CC(=O)c1ccc(NC(=O)C2(S(=O)(=O)c3ccccc3)CC2)cc1`, for which the AC50 under setting [1] was 5.62 µM [rising, single point].

As to `O=C(NCc1ccccc1)C(c1ccco1)N(C(=O)c1ccccn1)c1ccc(F)cc1` (stereo unspecified), the AC50 under setting [1] is 20 µM [falling, single point].

Regarding `CC(=O)c1cccc(N(C(=O)c2ccco2)C(C(=O)NC2CCCCC2)c2ccc(C)o2)c1` (stereo unspecified), the AC50 under setting [1] is 20 µM [falling, single point].

As for `O=C(COC(=O)CCCc1nc2ccccc2s1)NC(=O)NCc1ccco1`, the AC50 under setting [1] was 3.16 µM [rising, single point].
